Data reported in patent US20250066370A1, “BICYCLIC TRIAZINE DERIVATIVES FOR THE TREATMENT OF CANCER” (DEUTSCHES KREBSFORSCHUNGSZENTRUM, priority 2022, published 2025).
For at least one compound, name, drawing or mass did not settle the structure.

Chains of the proteins cited; added tags and fusions are not shown. A line that says so, or that is headed by a name, gives the form on record, which may keep a tag or linker.
UniProt Q9NYV4, other isoform, or with tags, fused parts or gaps: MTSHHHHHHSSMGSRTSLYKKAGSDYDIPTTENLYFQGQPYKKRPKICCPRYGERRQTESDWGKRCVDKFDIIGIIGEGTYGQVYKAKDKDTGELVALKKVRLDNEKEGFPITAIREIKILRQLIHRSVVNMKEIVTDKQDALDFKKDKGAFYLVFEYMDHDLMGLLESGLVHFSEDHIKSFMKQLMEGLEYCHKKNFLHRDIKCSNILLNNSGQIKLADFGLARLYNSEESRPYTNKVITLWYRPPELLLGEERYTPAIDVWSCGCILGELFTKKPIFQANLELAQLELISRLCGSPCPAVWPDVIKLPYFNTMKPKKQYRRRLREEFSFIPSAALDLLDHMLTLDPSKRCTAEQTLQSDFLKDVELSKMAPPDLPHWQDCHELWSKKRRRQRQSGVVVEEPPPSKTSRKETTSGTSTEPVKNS

Biological target: CDK12/CyclinK (Homo sapiens (Human), UniProt Q9NYV4)
Assay: CDK12/CycK high ATP kinase assay (TR-FRET)
Type: biochemical
Details: IC50 CDK12 at 2 mM ATP divided by CDK12 degradation DC50 (IF, CAL-120)
Experimental: In the context of the present invention, the term “IC50 CDK12 hATP” refers to the IC50 values obtained according to the assay described in this section (2.2) herein below, i.e. the IC50 values for the inhibition of CDK12 at high (2 mM) ATP.
CDK12/CycK-inhibitory activity of compounds of the present invention at 2 millimol/L adenosine-tri-phosphate (ATP) was quantified employing the TR-FRET (TR-FRET=Time Resolved Fluorescence Energy Transfer) based CDK12/CycK activity inhibition assay as described in the following paragraphs.
A complex of human recombinant CDK12 and human recombinant CycK (both N-terminally His-tagged, expression and purification as described above) was used as enzyme. As substrate for the kinase reaction biotinylated peptide biotin-Ahx-KFELLPTPPLSPSRRSGL (C-terminus in amid form) was used which can be purchased e.g. form the company Biosyntan (Berlin-Buch, Germany).
For the assay 50 nanoL of a 100 fold concentrated solution of the test compound in DMSO was pipetted into either a black low volume 384 well microtiter plate or a black 1536 well microtiter plate (both Greiner Bio-One, Frickenhausen, Germany), 2 microL of a solution of CDK12/CycK in aqueous assay buffer [25 millimol/L HEPES pH 7.5, 20 millimol/L MgCl2, 5 millimol/L β-glycerophosphate, 2 millimol/L EGTA, 1.0 millimol/L dithiothreitol, 0.01% (v/v) Nonidet-P40 (Sigma), 0.01% (w/v) bovine serum albumin] were added and the mixture was incubated for 15 min at 22° C. to allow pre-binding of the test compounds to the enzyme before the start of the kinase reaction. Then the kinase reaction was started by the addition of 3 microL of a solution ATP (3.33 millimol/L=>final conc. in the 5 microL assay volume is 2 millimol/L) and substrate (1.67 micromol/L=>final conc. in the 5 microL assay volume is 1 micromol/L) in assay buffer and the resulting mixture was incubated for a reaction time of 60 min at 22° C. The concentration of CDK12/CycK was adjusted depending of the activity of the enzyme lot and was chosen appropriate to have the assay in the linear range, typical concentrations were about 0.75 nanomol/L. The reaction was stopped by the addition of 3 microL of a solution of TR-FRET detection reagents (125 nanomol/L streptavidine-XL665 [Cisbio Bioassays, Codolet, France] and 0.67 nanomol/L anti-Phospho-c-Myc (Ser 62) (E1J4K)-antibody from Cell Signalling [#13748] and 2 nanomol/L LANCE EU-W1024 labeled anti-rabbit IgG antibody [Perkin-Elmer, product no. 0083]) in an aqueous EDTA-solution (133 millimol/L EDTA, 0.27% (w/v) bovine serum albumin in 66.7 millimol/L HEPES pH 7.5).
The resulting mixture was incubated 1 h at 22° C. to allow the formation of complex between the phosphorylated biotinylated peptide and the detection reagents. Subsequently the amount of phosphorylated substrate was evaluated by measurement of the resonance energy transfer from the Eu-chelate to the streptavidine-XL. Therefore, the fluorescence emissions at 620 nm and 665 nm after excitation at 350 nm was measured in a TR-FRET reader, e.g. a Pherastar FS (BMG Labtechnologies, Offenburg, Germany) or a Viewlux (Perkin-Elmer). The ratio of the emissions at 665 nm and at […] was taken as the measure for the amount of phosphorylated substrate. The data were normalised (enzyme reaction without inhibitor=0% inhibition, all other assay components but no enzyme=100% inhibition).

Row | SMILES | (IC50 CDK12 high ATP) to (Degradation DC50 CDK12) ratio
1 | FC(F)(F)c1ccc(-c2nnc(CNc3nc(N4CCOCC4)nc4c(C(F)(F)F)cnn34)[nH]2)cn1 [Example 16, 2-(morpholin-4-yl)-8-(trifluoromethyl)-N-({5-[6-(trifluoromethyl)pyridin-3-yl]-4H-1,2,4-triazol-3-yl}methyl)pyrazolo[1,5-a][1,3,5]triazin-4-amine] | <0.08
2 | FC(F)(F)c1ccc(-c2cnc(CNc3nc(N4CCOCC4)nc4c(C(F)(F)F)cnn34)[nH]2)cn1 [Example 24, 2-(morpholin-4-yl)-8-(trifluoromethyl)-N-({5-[6-(trifluoromethyl)pyridin-3-yl]-1H-imidazol-2-yl}methyl)pyrazolo[1,5-a][1,3,5]triazin-4-amine] | <0.02
3 | COc1ccc(-c2cnc(CNc3nc(N4CCOCC4)nn4c(C(F)(F)F)cnc34)[nH]2)cc1 [Example 13, N-{[5-(4-methoxyphenyl)-1H-imidazol-2-yl]methyl}-2-(morpholin-4-yl)-7-(trifluoromethyl)imidazo[2,1-f][1,2,4]triazin-4-amine] | 0.1
4 | FC(F)(F)Oc1ccc(-c2nnc(CNc3nc(N4CCOCC4)nc4c(C(F)(F)F)cnn34)[nH]2)cn1 [Example 17, 2-(morpholin-4-yl)-N-({5-[6-(trifluoromethoxy)pyridin-3-yl]-4H-1,2,4-triazol-3-yl}methyl)-8-(trifluoromethyl)pyrazolo[1,5-a][1,3,5]triazin-4-amine] | <5.96E−3
5 | COc1ccc(-c2nnc(CNc3nc(N4CCOCC4)nn4c(C(F)(F)F)cnc34)[nH]2)cn1 [Example 18, N-{[5-(6-methoxypyridin-3-yl)-4H-1,2,4-triazol-3-yl]methyl}-2-(morpholin-4-yl)-7-(trifluoromethyl)imidazo[2,1-f][1,2,4]triazin-4-amine] | <0.04
